# Results from one PubChem assay

From PubChem BioAssay record AID912 (NCATS, 2007).

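Uptake of anthrax lethal toxin into cultured cells, read by FRET (460/530 nm ratio) and reported from the 460 nm channel; the cell line is not named here. Each compound was tested as a concentration series from about 0.0005 to 40 µM. The number is the fitted AC50 of the 460 nm signal alone; lower values mean a more potent effect. A falling signal goes with compounds filed as inhibitors or cytotoxic, a rising one with activators or fluorescent compounds (inferred from the filed classes).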

Values are in µM. Common to all entries: measured here: 460 nm channel. This is a side read-out of the assay, for part of the compounds, not drawn at random. Potencies fitted to partial, single-point or poorly fitting curves are rough. The first word of each remark tells which way the curve ran; it can be opposite to the aim of the assay.

- Cc1ccc(Nc2nc(CSc3nnnn3-c3ccccc3)cs2)cc1 | AC50 31.62 µM (falling, single point)
- CN1c2cc3c(cc2N=C(c2ccc(C(=O)O)cc2)c2ccccc21)C(C)(C)CCC3(C)C | AC50 25.12 µM (falling, single point)
- CCOC(=O)c1cncc(NC(=O)c2ccccc2)c1 | AC50 0.003162 µM (falling, full curve)
- Clc1ccc(C2=CSC3=NCCN23)cc1Cl | AC50 5.012 µM (falling, partial curve, poor fit)
- CN1C(=O)Cn2c1nc1ccccc12 | AC50 10 µM (rising, single point)
- O=C(c1ccco1)n1nc(NCc2ccccc2)nc1NCc1ccccc1 | AC50 19.95 µM (rising, single point)
- CCNc1ncc2nc(-c3cccs3)c(=O)n(Cc3cccs3)c2n1 | AC50 5.012 µM (rising, partial curve)
- CN1CC(=O)N/C1=N\C(=O)Nc1ccc2c(c1)N(C)C(=O)CS2 | AC50 31.62 µM (rising, single point)
- N#C/C(=C\c1ccc(O)c(O)c1)C(=O)NCCCCc1ccccc1 | AC50 0.7943 µM (falling, full curve, poor fit)
- COC(=O)CSc1nnc([C@H](Cc2ccccc2)NC(=O)OC(C)(C)C)o1 | AC50 6.31 µM (rising, full curve)
- CCN(CC)CCCN=Cc1c(O)n(CCc2ccc(F)cc2)c(=O)[nH]c1=O | AC50 0.7943 µM (falling, full curve)
- O=C(CN1CCCc2ccccc21)NCc1ccc2c(c1)OCO2 | AC50 0.1259 µM (falling, full curve, poor fit)
- COCC(=O)Oc1c(S(=O)(=O)c2ccc(C)cc2)c(C)nn1-c1ccccc1 | AC50 5.012 µM (rising, single point)
- COc1cccc(-c2csc(N3CCN(C(=O)C4CCCCC4)CC3)n2)c1 | AC50 10 µM (falling, partial curve)
- COc1ccc(-c2cc(C(F)(F)F)nc(S(C)(=O)=O)n2)cc1OC | AC50 10 µM (falling, partial curve)
- COc1ccccc1NC(=O)CSc1ncnc2c1oc1ccccc12 | AC50 0.7943 µM (rising, full curve, poor fit)
- CCOC(=O)c1sc(NC(=O)c2ccc(Br)o2)cc1C | AC50 12.59 µM (falling, partial curve)
- Cc1ccc(-n2c3c(cc(C(=O)N4CCN(C)CC4)c2=O)C(=O)CC(C)(C)C3)cc1 | AC50 5.012 µM (falling, single point)
- COc1ccc(OC)c(S(=O)(=O)N2CCC(C(=O)Nc3ccc(C)c(C)c3)CC2)c1 | AC50 0.003981 µM (falling, full curve, poor fit)
- O=C(COc1ccc(Br)cc1)Nc1ccc(-c2nnc(-c3ccco3)o2)cc1 | AC50 10 µM (rising, single point)
- COc1ccccc1CN1C(=O)C2CC=CCC2C1=O (centres undefined) | AC50 0.05012 µM (rising, full curve, poor fit)